PMC8811367
Results are given in words; binding and its absence hold for the method and conditions named. In cells and extracts the contact can be indirect. Some results given as binding are weak or reduced against the parent protein; the word gives no strength.

Sequences of proteins named here, by UniProt entry; tags and fusion partners are left off.
UniProt Q8CFI0: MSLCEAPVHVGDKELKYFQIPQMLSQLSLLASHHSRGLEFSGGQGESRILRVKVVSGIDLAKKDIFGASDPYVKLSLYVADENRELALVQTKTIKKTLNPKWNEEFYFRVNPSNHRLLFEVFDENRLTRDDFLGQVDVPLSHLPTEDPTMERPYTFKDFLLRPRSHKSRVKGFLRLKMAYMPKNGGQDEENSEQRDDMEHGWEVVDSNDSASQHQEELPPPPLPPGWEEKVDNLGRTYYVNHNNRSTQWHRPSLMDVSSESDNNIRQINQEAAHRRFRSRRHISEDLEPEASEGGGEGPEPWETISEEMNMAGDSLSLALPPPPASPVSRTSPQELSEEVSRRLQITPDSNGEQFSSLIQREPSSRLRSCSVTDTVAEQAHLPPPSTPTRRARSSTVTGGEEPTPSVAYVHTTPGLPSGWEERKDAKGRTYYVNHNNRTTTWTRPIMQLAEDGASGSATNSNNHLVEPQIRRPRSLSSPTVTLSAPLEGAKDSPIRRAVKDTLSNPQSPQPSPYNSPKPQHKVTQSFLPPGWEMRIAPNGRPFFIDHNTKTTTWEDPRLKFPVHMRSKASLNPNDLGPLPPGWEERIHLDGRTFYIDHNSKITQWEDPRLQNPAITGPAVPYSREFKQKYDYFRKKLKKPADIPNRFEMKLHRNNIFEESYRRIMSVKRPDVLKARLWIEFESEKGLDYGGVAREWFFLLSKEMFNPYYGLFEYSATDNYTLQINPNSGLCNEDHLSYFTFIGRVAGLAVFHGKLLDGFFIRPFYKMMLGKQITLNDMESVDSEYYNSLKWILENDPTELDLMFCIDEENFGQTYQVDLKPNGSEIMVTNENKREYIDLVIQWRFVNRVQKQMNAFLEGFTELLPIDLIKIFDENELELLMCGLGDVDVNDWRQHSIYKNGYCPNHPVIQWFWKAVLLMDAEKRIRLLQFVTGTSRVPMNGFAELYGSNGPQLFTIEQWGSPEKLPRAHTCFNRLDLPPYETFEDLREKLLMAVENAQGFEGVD

Biological target: T1, nephrin (mouse (endogenous in conditionally immortalized mouse podocytes)) (UniProt Q9QZS7)
T1 sequence: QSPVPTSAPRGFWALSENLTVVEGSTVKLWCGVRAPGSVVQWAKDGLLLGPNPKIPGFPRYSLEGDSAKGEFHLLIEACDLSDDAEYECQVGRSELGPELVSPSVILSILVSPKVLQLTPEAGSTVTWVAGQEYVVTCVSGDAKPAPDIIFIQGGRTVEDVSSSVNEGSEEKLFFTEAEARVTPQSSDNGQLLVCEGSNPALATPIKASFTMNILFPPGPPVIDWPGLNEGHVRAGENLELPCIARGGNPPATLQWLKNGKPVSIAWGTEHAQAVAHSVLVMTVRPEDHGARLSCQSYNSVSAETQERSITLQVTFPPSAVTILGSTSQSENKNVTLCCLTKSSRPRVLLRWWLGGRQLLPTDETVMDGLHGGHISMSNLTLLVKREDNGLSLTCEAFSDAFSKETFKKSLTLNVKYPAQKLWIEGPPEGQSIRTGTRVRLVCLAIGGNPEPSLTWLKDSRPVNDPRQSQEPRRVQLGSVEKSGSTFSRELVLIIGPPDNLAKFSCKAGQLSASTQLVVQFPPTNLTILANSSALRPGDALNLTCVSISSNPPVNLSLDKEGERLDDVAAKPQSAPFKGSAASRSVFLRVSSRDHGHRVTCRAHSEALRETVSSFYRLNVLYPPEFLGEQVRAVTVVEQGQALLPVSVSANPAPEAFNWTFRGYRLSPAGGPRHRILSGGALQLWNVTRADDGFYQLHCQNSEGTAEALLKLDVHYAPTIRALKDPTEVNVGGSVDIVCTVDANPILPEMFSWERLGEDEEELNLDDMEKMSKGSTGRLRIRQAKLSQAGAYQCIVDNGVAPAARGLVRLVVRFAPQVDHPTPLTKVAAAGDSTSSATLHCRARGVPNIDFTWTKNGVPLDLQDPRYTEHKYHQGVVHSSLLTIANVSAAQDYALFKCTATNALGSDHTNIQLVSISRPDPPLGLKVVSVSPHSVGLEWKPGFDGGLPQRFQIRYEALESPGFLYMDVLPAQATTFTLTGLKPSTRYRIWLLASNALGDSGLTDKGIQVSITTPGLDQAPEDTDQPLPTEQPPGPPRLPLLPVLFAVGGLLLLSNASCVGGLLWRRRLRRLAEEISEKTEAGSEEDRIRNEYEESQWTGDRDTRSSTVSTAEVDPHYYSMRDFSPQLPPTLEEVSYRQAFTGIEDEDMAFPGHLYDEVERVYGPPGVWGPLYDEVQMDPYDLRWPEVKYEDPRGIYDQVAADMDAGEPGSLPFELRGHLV
Assay: co-IP; mouse podocytes transfected with mouse Nedd4-2 plasmid or empty vector for 48 h; 1 mg of lysate (IP lysis buffer) incubated with anti-nephrin antibody and protein A/G agarose beads; blotted with anti-Nedd4-2

In the case of “neural precursor cells expressing developmentally downregulated protein 4 subtype 2 (Nedd4-2) (from UniProt Q8CFI0 1-1004) (enzyme)”, the binding is reported as “binds”.
